Values quoted from earlier work in patent publication US6218375A, “Complex of ras-farnesyltransferase inhibitor and sulfobutylether-7-β-cyclodextrin or 2-hydroxypropyl-β-cyclodextrin and method” (priority 2000, dated 2001).

Conditions: by β-cyclodextrin

For `CN1[C@@H]2CC[C@H]1C[C@@H](OC(=O)C(CO)c1ccccc1)C2` (stereo partly shown) [atropine], the stabilization is listed as “increases stabilization”.
